Experiment [1] deals with His-KAT2A (in HEK-293T cells) (UniProt Q92830). Description: co-IP; competition in HEK-293T cells: immunoprecipitation of KAT2A with forced overexpression of c-MYC or of SNIP1, harvested 48 h after transfection.
For experiment [2] the target is unchanged. Description: co-IP; HEK-293T cells transfected with tagged constructs, IP buffer with 1% Triton X-100, Protein A/G magnetic beads, immunoblot; in some panels with co-expressed KMT5A^WT or KMT5A^R336G. On the technique in general: A western blot detects proteins with antibodies after separation by electrophoresis.
The target of experiment [3] is endogenous KAT2A (human (endogenous in MDA-MB-231 and BT549)) (UniProt Q92830). As to the kind of experiment: co-IP; endogenous proteins, MDA-MB-231 and BT549 lysates, IP buffer with 1% Triton X-100, Protein A/G magnetic beads, washes with 0.5 M NaCl; also in cells with KAT2A knock-down and in sgKMT5A cells re-expressing KMT5A^WT or KMT5A^R336G.
Experiment [4] deals with T1, GST-SNIP1 (UniProt Q8TAD8).
T1 sequence: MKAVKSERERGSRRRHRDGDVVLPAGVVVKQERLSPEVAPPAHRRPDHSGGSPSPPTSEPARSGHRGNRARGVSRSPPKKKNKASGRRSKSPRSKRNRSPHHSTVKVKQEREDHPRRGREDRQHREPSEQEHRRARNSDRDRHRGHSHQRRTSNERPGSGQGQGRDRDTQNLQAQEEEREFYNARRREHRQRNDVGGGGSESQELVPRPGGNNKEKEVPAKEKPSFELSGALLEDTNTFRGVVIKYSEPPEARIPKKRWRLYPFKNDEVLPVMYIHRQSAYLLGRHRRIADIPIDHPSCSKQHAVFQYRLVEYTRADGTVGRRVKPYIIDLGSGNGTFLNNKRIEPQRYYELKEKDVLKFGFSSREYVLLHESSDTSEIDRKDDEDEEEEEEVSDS
Description: pull-down; GST pull-down with purified GST-SNIP1, GST-SNIP1-K301M or GST alone and His-KAT2A, western blot.

Amino acid sequences for entries named in this document (tags omitted).
UniProt Q92830: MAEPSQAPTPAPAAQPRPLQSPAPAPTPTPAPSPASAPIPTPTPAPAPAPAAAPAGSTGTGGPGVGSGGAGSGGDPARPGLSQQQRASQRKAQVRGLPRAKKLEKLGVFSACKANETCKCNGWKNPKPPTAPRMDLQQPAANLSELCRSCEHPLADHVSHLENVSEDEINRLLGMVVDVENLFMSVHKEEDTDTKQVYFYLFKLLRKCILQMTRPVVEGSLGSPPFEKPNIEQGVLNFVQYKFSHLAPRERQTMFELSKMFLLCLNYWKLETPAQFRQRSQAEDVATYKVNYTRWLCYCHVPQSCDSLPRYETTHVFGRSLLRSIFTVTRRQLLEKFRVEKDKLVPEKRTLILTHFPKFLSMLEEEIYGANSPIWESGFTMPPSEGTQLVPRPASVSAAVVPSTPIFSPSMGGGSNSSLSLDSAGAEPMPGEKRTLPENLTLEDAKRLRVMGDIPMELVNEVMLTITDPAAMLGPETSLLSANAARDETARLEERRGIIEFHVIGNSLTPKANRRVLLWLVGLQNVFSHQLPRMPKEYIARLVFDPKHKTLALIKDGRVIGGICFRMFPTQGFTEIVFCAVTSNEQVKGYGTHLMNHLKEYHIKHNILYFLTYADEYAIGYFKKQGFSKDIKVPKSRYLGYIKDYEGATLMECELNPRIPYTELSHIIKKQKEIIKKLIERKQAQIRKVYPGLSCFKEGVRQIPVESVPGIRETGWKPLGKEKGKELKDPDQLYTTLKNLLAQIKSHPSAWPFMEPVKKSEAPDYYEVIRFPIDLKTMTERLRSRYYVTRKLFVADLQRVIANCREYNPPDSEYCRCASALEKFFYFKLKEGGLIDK
UniProt P01106: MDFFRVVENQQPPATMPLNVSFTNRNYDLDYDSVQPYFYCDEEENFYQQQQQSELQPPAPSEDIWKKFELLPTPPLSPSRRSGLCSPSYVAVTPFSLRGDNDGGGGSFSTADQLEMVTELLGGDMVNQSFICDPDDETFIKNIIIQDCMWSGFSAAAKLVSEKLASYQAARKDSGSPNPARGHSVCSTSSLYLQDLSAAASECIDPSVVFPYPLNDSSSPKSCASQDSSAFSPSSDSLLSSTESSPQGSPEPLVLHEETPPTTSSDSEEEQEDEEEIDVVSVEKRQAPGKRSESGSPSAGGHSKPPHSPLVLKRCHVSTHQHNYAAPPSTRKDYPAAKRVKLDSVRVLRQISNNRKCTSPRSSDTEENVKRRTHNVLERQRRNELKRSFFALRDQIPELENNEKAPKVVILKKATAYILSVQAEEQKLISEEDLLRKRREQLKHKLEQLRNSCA

Experiment [5] addresses endogenous KAT2A (human (endogenous in MDA-MB-231 and BT549)) (UniProt Q92830). As to the kind of experiment: co-IP; endogenous proteins, MDA-MB-231 and BT549 lysates, IP buffer with 1% Triton X-100, Protein A/G magnetic beads, washes with 0.5 M NaCl; also in cells with KAT2A knock-down and in sgKMT5A cells re-expressing KMT5A^WT or KMT5A^R336G. The source holds these as a separate data set.

Experiment [6] has as its target endogenous c-MYC (human (endogenous in MDA-MB-231 and BT549)) (UniProt P01106). The experiment is described as above.
Experiment [7] concerns the target His-KAT2A (in HEK-293T cells) (UniProt Q92830). As to the kind of experiment: co-IP; HEK-293T cells transfected with tagged constructs, IP buffer with 1% Triton X-100, Protein A/G magnetic beads, immunoblot; in some panels with co-expressed KMT5A^WT or KMT5A^R336G. This is another data set of the same source.
Experiment [8] has as its target Flag-c-MYC (in HEK-293T cells) (UniProt P01106). The description is as above.

Positions count from the first letter of the chain named. Names may count otherwise. Read-outs that look alike come from different tables or passages of the source. Results are given in words; binding and its absence hold for the method and conditions named. Binding seen in cells or lysates may run through a third protein. Some entries that bind do so weakly or less than the wild type. For some assays here: Sequences can lack the tags named with a protein.

For “Flag-c-MYC (in HEK-293T cells) (from UniProt P01106 1-454)”, the binding result in experiment [1] and in experiment [2] was “binds” throughout. “endogenous c-MYC (from UniProt P01106 1-454)”: the binding entry in experiment [3] is reported as “binds”.

In the case of “His-KAT2A (of the GST pull-down) (from UniProt Q92830 1-837) (enzyme)”, the binding entry in experiment [4] is on record as “binds”.

B1: endogenous SNIP1 (protein, UniProt Q8TAD8 1-396)
chain: T1 sequence
B1: the binding entry in experiment [5] and in experiment [6] was “binds” each time.

B2: HA-SNIP1 (protein, UniProt Q8TAD8 1-396)
chain: T1 sequence
For the molecule B2, the binding entry in experiment [1], in experiment [7] and in experiment [8] was “binds” each time.

B3: HA-SNIP1^K301R (protein, UniProt Q8TAD8 1-396)
chain: T1 sequence with K301R
For the molecule B3, the binding result in experiment [7] and in experiment [8] was “binds” in each case.

Source of the values: article PMC9023492.
